Measured data: PubChem BioAssay AID1224830 (NIAID, 2016)
The whole screen tested about 18,000 reagents; this is a part drawn at random. About 2,900 of them (16%) count as active. 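Calls are made per well; low scores hint the gene aids the LPS response, high scores that it dampens it.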 Repeated entries: four replicate wells of each siRNA pool.

Aim: 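Host factors that control LPS-induced TNF expression in human macrophages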 (primary screen)
Cell system: human THP-1 monocytic leukaemia cells, TNF dual-luciferase reporter clone, PMA-differentiated to macrophage-like cells
Reagents: siRNA pool against human genes, 50 nM
Timing: LPS for 4 h, given about 3 days after siRNA transfection
Treatment: bacterial LPS (TLR4 ligand), 10 ng/ml
Measured: 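Ratio of firefly to renilla light, scaled to the plate median and expressed as a robust z-score per replicate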
Reading the numbers: TNF reporter robust z-score: higher = stronger TNF reporter response to LPS
Hit rule: 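Each well counts as active if its z-score is over 2.8 or under -1.5; controls are left without a call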

The opening 3 entries, to show the layout:
gene | PubChem SID | TNF reporter robust z-score | call
PHRF1 (PHD and ring finger domains 1) | SID315458532 | 0.38 | inactive
PHRF1 (PHD and ring finger domains 1) | SID315458532 | 0.58 | inactive
PHRF1 (PHD and ring finger domains 1) | SID315458532 | -0.25 | inactive

The listing, from the first entry:
gene | PubChem SID | TNF reporter robust z-score | call
PHRF1 (PHD and ring finger domains 1) | SID315458532 | 0.38 | inactive
PHRF1 (PHD and ring finger domains 1) | SID315458532 | 0.58 | inactive
PHRF1 (PHD and ring finger domains 1) | SID315458532 | -0.25 | inactive
PHRF1 (PHD and ring finger domains 1) | SID315458532 | 2 | inactive
HTR2C (5-hydroxytryptamine receptor 2C) | SID315449367 | -0.02 | inactive
HTR2C (5-hydroxytryptamine receptor 2C) | SID315449367 | 0.14 | inactive
HTR2C (5-hydroxytryptamine receptor 2C) | SID315449367 | -0.04 | inactive
HTR2C (5-hydroxytryptamine receptor 2C) | SID315449367 | -0.06 | inactive
PDCD4 (programmed cell death 4) | SID315455997 | -0.37 | inactive
PDCD4 (programmed cell death 4) | SID315455997 | 0.06 | inactive
PDCD4 (programmed cell death 4) | SID315455997 | 0.05 | inactive
PDCD4 (programmed cell death 4) | SID315455997 | 1.55 | inactive
ZBTB3 (zinc finger and BTB domain containing 3) | SID315459504 | -0.73 | inactive
ZBTB3 (zinc finger and BTB domain containing 3) | SID315459504 | -0.38 | inactive
ZBTB3 (zinc finger and BTB domain containing 3) | SID315459504 | -0.34 | inactive
ZBTB3 (zinc finger and BTB domain containing 3) | SID315459504 | -0.05 | inactive
PABPC3 (poly(A) binding protein cytoplasmic 3) | SID315450404 | 0.02 | inactive
PABPC3 (poly(A) binding protein cytoplasmic 3) | SID315450404 | 0.05 | inactive
PABPC3 (poly(A) binding protein cytoplasmic 3) | SID315450404 | -0.35 | inactive
PABPC3 (poly(A) binding protein cytoplasmic 3) | SID315450404 | -0.47 | inactive
SSPN (sarcospan) | SID315452393 | -0.98 | inactive
SSPN (sarcospan) | SID315452393 | -0.65 | inactive
SSPN (sarcospan) | SID315452393 | -0.49 | inactive
SSPN (sarcospan) | SID315452393 | 0.22 | inactive
BCAP29 (B cell receptor associated protein 29) | SID315457970 | -0.88 | inactive
BCAP29 (B cell receptor associated protein 29) | SID315457970 | 0.1 | inactive
BCAP29 (B cell receptor associated protein 29) | SID315457970 | -1.45 | inactive
BCAP29 (B cell receptor associated protein 29) | SID315457970 | -1.46 | inactive
GLI3 (GLI family zinc finger 3) | SID315448919 | 4.86 | active
GLI3 (GLI family zinc finger 3) | SID315448919 | 1.35 | inactive
GLI3 (GLI family zinc finger 3) | SID315448919 | 1.69 | inactive
GLI3 (GLI family zinc finger 3) | SID315448919 | 4.45 | active
KRABD4 (KRAB domain containing 4) | SID315457734 | 0.3 | inactive
KRABD4 (KRAB domain containing 4) | SID315457734 | -0.4 | inactive
KRABD4 (KRAB domain containing 4) | SID315457734 | 0.13 | inactive
KRABD4 (KRAB domain containing 4) | SID315457734 | -0.08 | inactive
PRDM14 (PR/SET domain 14) | SID315458795 | 1.4 | inactive
PRDM14 (PR/SET domain 14) | SID315458795 | 1.29 | inactive
PRDM14 (PR/SET domain 14) | SID315458795 | -1.13 | inactive
PRDM14 (PR/SET domain 14) | SID315458795 | -0.7 | inactive
RMDN2 (regulator of microtubule dynamics 2) | SID315462492 | -0.83 | inactive
RMDN2 (regulator of microtubule dynamics 2) | SID315462492 | 2.42 | inactive
RMDN2 (regulator of microtubule dynamics 2) | SID315462492 | 1.13 | inactive
RMDN2 (regulator of microtubule dynamics 2) | SID315462492 | -1.02 | inactive
TSPYL1 (TSPY like 1) | SID315451993 | -0.49 | inactive
TSPYL1 (TSPY like 1) | SID315451993 | -0.93 | inactive
TSPYL1 (TSPY like 1) | SID315451993 | -0.64 | inactive
TSPYL1 (TSPY like 1) | SID315451993 | 1.2 | inactive
ZNF518A (zinc finger protein 518A) | SID315453616 | -0.32 | inactive
ZNF518A (zinc finger protein 518A) | SID315453616 | 0.03 | inactive
ZNF518A (zinc finger protein 518A) | SID315453616 | -0.39 | inactive
ZNF518A (zinc finger protein 518A) | SID315453616 | -0.82 | inactive
KRT77 (keratin 77) | SID315464319 | -0.56 | inactive
KRT77 (keratin 77) | SID315464319 | -0.05 | inactive
KRT77 (keratin 77) | SID315464319 | 0.77 | inactive
KRT77 (keratin 77) | SID315464319 | -0.27 | inactive
FOXRED1 (FAD dependent oxidoreductase domain containing 1) | SID315457686 | -0.61 | inactive
FOXRED1 (FAD dependent oxidoreductase domain containing 1) | SID315457686 | 1.53 | inactive
FOXRED1 (FAD dependent oxidoreductase domain containing 1) | SID315457686 | -0.43 | inactive
FOXRED1 (FAD dependent oxidoreductase domain containing 1) | SID315457686 | 1.02 | inactive
DRGX (dorsal root ganglia homeobox) | SID315465094 | 0.45 | inactive
DRGX (dorsal root ganglia homeobox) | SID315465094 | 2.57 | inactive
DRGX (dorsal root ganglia homeobox) | SID315465094 | 1.35 | inactive
DRGX (dorsal root ganglia homeobox) | SID315465094 | 0.34 | inactive
NSUN7 (NOP2/Sun RNA methyltransferase family member 7) | SID315459419 | 1.63 | inactive
NSUN7 (NOP2/Sun RNA methyltransferase family member 7) | SID315459419 | 1.46 | inactive
NSUN7 (NOP2/Sun RNA methyltransferase family member 7) | SID315459419 | 0.93 | inactive
NSUN7 (NOP2/Sun RNA methyltransferase family member 7) | SID315459419 | 1.32 | inactive
LARP1B (La ribonucleoprotein 1B) | SID315457431 | 0.61 | inactive
LARP1B (La ribonucleoprotein 1B) | SID315457431 | 0.22 | inactive
LARP1B (La ribonucleoprotein 1B) | SID315457431 | 0.31 | inactive
LARP1B (La ribonucleoprotein 1B) | SID315457431 | -0.44 | inactive
B4GALT2 (beta-1,4-galactosyltransferase 2) | SID315452758 | 0.45 | inactive
B4GALT2 (beta-1,4-galactosyltransferase 2) | SID315452758 | 1.16 | inactive
B4GALT2 (beta-1,4-galactosyltransferase 2) | SID315452758 | -0.04 | inactive
B4GALT2 (beta-1,4-galactosyltransferase 2) | SID315452758 | -0.3 | inactive
